PubChem BioAssay AID1259254 – NCATS – 2017
Aim: 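Genome-wide screen for genes that prevent DNA re-replication in cancer cells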 (primary screen). System: human HCT116 colorectal cancer cells. Knock-down reagent: single siRNA against human genes. Duration: 3 days. Measurement: 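Nuclei stained with Hoechst and imaged; cell-cycle phase assigned by DNA content; G2 share scaled per plate, non-targeting siRNA 0%, GMNN siRNA 100%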. Reading the numbers: G2 robust z-score and G2 cells, % of GMNN control: higher = more G2 cells, more excess DNA replication; raw share of cells in G2: higher = larger share of cells with G2 DNA content. Hit rule: 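Active siRNAs have a G2 robust z of 5 or more median absolute deviations over the median, which in these data means about 38% or higher of GMNN control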.
This is a random part of about 59,000 reagents. In the full data, about 1,550 (2.6%) got an active call. 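G2 share is only a proxy for re-replication; each gene was hit by three separate siRNAs, and active genes were retested.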 The raw values are shown without normalisation. The numbers tell different reagents against one gene apart. Reagent sequences are not shown. The record does not give: the amount of reagent.

no.	gene	reagent no.	G2 robust z-score	G2 cells, % of GMNN control	raw share of cells in G2 (%)	call
1	NBPF15 (NBPF member 15)	1	-0.0305	2.75	4.11	inactive
2	NBPF15 (NBPF member 15)	2	2.39	19.8	9.28	inactive
3	NBPF15 (NBPF member 15)	3	-0.809	-2.72	2.65	inactive
4	FRG1 (FSHD region gene 1)	1	-0.309	0.792	3.83	inactive
5	FRG1 (FSHD region gene 1)	2	1.17	11.2	10.5	inactive
6	FRG1 (FSHD region gene 1)	3	-0.793	-2.61	3.13	inactive
7	AR (androgen receptor)	1	-0.511	-0.626	5.47	inactive
8	AR (androgen receptor)	2	2.64	21.5	11.9	inactive
9	AR (androgen receptor)	3	0.529	6.69	6.17	inactive
10	CAPZB (capping actin protein of muscle Z-line subunit beta)	1	4	31.1	15.6	inactive
11	CAPZB (capping actin protein of muscle Z-line subunit beta)	2	-1.16	-5.19	2.95	inactive
12	CAPZB (capping actin protein of muscle Z-line subunit beta)	3	1.47	13.3	9.81	inactive
13	HTR3C (5-hydroxytryptamine receptor 3C)	1	0.212	4.46	6.91	inactive
14	HTR3C (5-hydroxytryptamine receptor 3C)	2	0.124	3.84	6.08	inactive
15	HTR3C (5-hydroxytryptamine receptor 3C)	3	-0.488	-0.463	4.19	inactive
16	ATP6V1D (ATPase H+ transporting V1 subunit D)	1	2.25	18.8	14.5	inactive
17	ATP6V1D (ATPase H+ transporting V1 subunit D)	2	1.5	13.5	9.24	inactive
18	ATP6V1D (ATPase H+ transporting V1 subunit D)	3	2.1	17.8	10.6	inactive
19	UBE2W (ubiquitin conjugating enzyme E2 W)	1	-0.618	-1.38	3.94	inactive
20	UBE2W (ubiquitin conjugating enzyme E2 W)	2	0.199	4.37	6.15	inactive
21	UBE2W (ubiquitin conjugating enzyme E2 W)	3	-0.521	-0.697	6.12	inactive
22	FOXD4L3 (forkhead box D4 like 3)	1	0.981	9.87	10.2	inactive
23	FOXD4L3 (forkhead box D4 like 3)	2	-1.11	-4.86	3.06	inactive
24	FOXD4L3 (forkhead box D4 like 3)	3	-0.273	1.04	4.67	inactive
25	GLMP (glycosylated lysosomal membrane protein)	1	-1.01	-4.15	2.43	inactive
26	GLMP (glycosylated lysosomal membrane protein)	2	-0.238	1.29	3.71	inactive
27	GLMP (glycosylated lysosomal membrane protein)	3	-0.598	-1.24	1.46	inactive
28	UPF1 (UPF1 RNA helicase and ATPase)	1	0.317	5.2	5.87	inactive
29	UPF1 (UPF1 RNA helicase and ATPase)	2	0.799	8.59	7.93	inactive
30	UPF1 (UPF1 RNA helicase and ATPase)	3	1.15	11	8.89	inactive
31	WDR44 (WD repeat domain 44)	1	-0.214	1.46	4.13	inactive
32	WDR44 (WD repeat domain 44)	2	0.973	9.81	8.4	inactive
33	WDR44 (WD repeat domain 44)	3	1.18	11.3	6.92	inactive
34	PTTG1	1	1.27	11.9	9.93	inactive
35	PTTG1	2	0.249	4.72	6.92	inactive
36	PTTG1	3	5.32	40.4	19.2	active
37	TBC1D23 (TBC1 domain family member 23)	1	0.198	4.36	8.34	inactive
38	TBC1D23 (TBC1 domain family member 23)	2	-0.52	-0.688	4.19	inactive
39	TBC1D23 (TBC1 domain family member 23)	3	1.17	11.2	9.01	inactive
40	ACBD5 (acyl-CoA binding domain containing 5)	1	0.422	5.93	7.51	inactive
41	ACBD5 (acyl-CoA binding domain containing 5)	2	-0.373	0.346	5.83	inactive
42	ACBD5 (acyl-CoA binding domain containing 5)	3	-0.536	-0.807	4.18	inactive
43	ADGRF1 (adhesion G protein-coupled receptor F1)	1	0.0717	3.47	4.33	inactive
44	ADGRF1 (adhesion G protein-coupled receptor F1)	2	2.23	18.7	12.5	inactive
45	ADGRF1 (adhesion G protein-coupled receptor F1)	3	0.304	5.1	6.3	inactive

Not a retest: an excerpt of the list.
no.	gene	reagent no.	G2 robust z-score	G2 cells, % of GMNN control	raw share of cells in G2 (%)	call
14	HTR3C (5-hydroxytryptamine receptor 3C)	2	0.124	3.84	6.08	inactive
15	HTR3C (5-hydroxytryptamine receptor 3C)	3	-0.488	-0.463	4.19	inactive
16	ATP6V1D (ATPase H+ transporting V1 subunit D)	1	2.25	18.8	14.5	inactive
17	ATP6V1D (ATPase H+ transporting V1 subunit D)	2	1.5	13.5	9.24	inactive
18	ATP6V1D (ATPase H+ transporting V1 subunit D)	3	2.1	17.8	10.6	inactive
19	UBE2W (ubiquitin conjugating enzyme E2 W)	1	-0.618	-1.38	3.94	inactive
20	UBE2W (ubiquitin conjugating enzyme E2 W)	2	0.199	4.37	6.15	inactive
21	UBE2W (ubiquitin conjugating enzyme E2 W)	3	-0.521	-0.697	6.12	inactive
22	FOXD4L3 (forkhead box D4 like 3)	1	0.981	9.87	10.2	inactive
23	FOXD4L3 (forkhead box D4 like 3)	2	-1.11	-4.86	3.06	inactive
24	FOXD4L3 (forkhead box D4 like 3)	3	-0.273	1.04	4.67	inactive

Further records:
no.	gene	reagent no.	G2 robust z-score	G2 cells, % of GMNN control	raw share of cells in G2 (%)	call
46	DNAJC9 (DnaJ heat shock protein family (Hsp40) member C9)	1	-0.0111	2.89	4.49	inactive
47	DNAJC9 (DnaJ heat shock protein family (Hsp40) member C9)	2	-1.02	-4.19	4.12	inactive
48	DNAJC9 (DnaJ heat shock protein family (Hsp40) member C9)	3	1.13	10.9	7.91	inactive
49	ERMP1 (endoplasmic reticulum metallopeptidase 1)	1	-0.422	0	5.6	inactive
50	ERMP1 (endoplasmic reticulum metallopeptidase 1)	2	2.56	20.9	11.4	inactive
51	ERMP1 (endoplasmic reticulum metallopeptidase 1)	3	-0.0393	2.69	5.26	inactive
52	LOC646865 (retired record)	1	-0.533	-0.785	3.48	inactive
53	LOC646865 (retired record)	2	0.318	5.2	5.16	inactive
54	LOC646865 (retired record)	3	-0.718	-2.09	2.38	inactive
55	MYBL2 (MYB proto-oncogene like 2)	1	2.42	20	13.4	inactive
56	MYBL2 (MYB proto-oncogene like 2)	2	-0.532	-0.775	2.94	inactive
57	MYBL2 (MYB proto-oncogene like 2)	3	0.229	4.58	7.13	inactive
58	DMD (dystrophin)	1	0.566	6.95	6.49	inactive
59	DMD (dystrophin)	2	2.55	20.9	12.4	inactive
60	DMD (dystrophin)	3	1.54	13.8	10	inactive
61	TIAM2 (TIAM Rac1 associated GEF 2)	1	-0.912	-3.45	2.86	inactive
62	TIAM2 (TIAM Rac1 associated GEF 2)	2	1.76	15.3	9.28	inactive
63	TIAM2 (TIAM Rac1 associated GEF 2)	3	-0.122	2.11	7.12	inactive
64	PPP1R11 (protein phosphatase 1 regulatory inhibitor subunit 11)	1	1.24	11.7	8.59	inactive
65	PPP1R11 (protein phosphatase 1 regulatory inhibitor subunit 11)	2	1.1	10.7	7.52	inactive
66	PPP1R11 (protein phosphatase 1 regulatory inhibitor subunit 11)	3	-1.06	-4.51	2.14	inactive
67	VMAC	1	-0.361	0.429	4.97	inactive
68	VMAC	2	-0.323	0.692	4.06	inactive
69	VMAC	3	-0.163	1.82	4.24	inactive
